Laboratory results reported in PubChem BioAssay AID2685 (National Center for Advancing Translational Sciences (NCATS), 2010).
This is one part of the list. These are further read-outs of the screen, such as a control signal, another cell line or another target. No call is given for them. The list favours compounds with an active or inconclusive main result. Words in brackets tell the shape of the fitted curve; partial curves, single points and poor fits give uncertain potencies.

Test: qHTS Assay for Lipid Storage Modulators in Drosophila S3 Cells;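 for cell number change: cells counted by Cell Tracker Red CMTPX staining in the red channel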
Conditions: BODIPY lipid droplet fluorescence, 18-24 h; for cell number change: measured here: cell count max response, cells fed with added oleic acid
Summary of the method: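 Drosophila S3 cells got compounds at several concentrations plus oleic acid (400 uM solution). Laser-scanning cytometry with 488 nm excitation read lipid droplets at 500-530 nm and cells at 575-640 nm. Percent activity was relative to 20 uM Triacsin C.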

[1] = measured here: lipid fluorescence (Fed channel) AC50, cells fed with added oleic acid
[2] = measured here: cell number channel AC50, cells fed with added oleic acid

Compound	cell number change [%]	AC50 [1]	AC50 [2]
COc1ccc(CCNC(=O)CSCc2n[nH]c(=O)[nH]2)cc1OC	-29.1	29.1 µM [falling, single point]	–
CC1(C)NC(=O)N(CCCCOc2ccc(Br)cc2Cl)C1=O	-3.44	0.116 µM [rising, full curve]	–
COc1ccc(OC)c(C(=O)CSc2nnc(Cc3cccs3)n2CCc2ccccc2)c1	-35	–	9.2 µM [falling, single point]
C=CCn1c(O)c(CN2CCCCC2)c(C)c(C#N)c1=O	-98.2	6.51 µM [falling, partial curve, poor fit]	23.1 µM [falling, partial curve]
N#Cc1cc([N+](=O)[O-])cnc1N(CCO)CCO	47.2	–	6.51 µM [rising, single point]
CCc1nnc(NC(=O)CSc2nnc(-c3cc4ccccc4cc3O)n2CCOC)s1	-9.54	–	–
COCCN(CCOC)C(=O)c1cc2c(=O)n3ccccc3nc2s1	-0.886	2.91 µM [rising, partial curve]	–
O=C1CN(C(=O)CSc2nncn2-c2ccccc2)c2ccccc2N1	-5.58	–	–
Cc1cc2c3c(c1)C1(C(=O)N3C(C)(C)CC2C)C(C#N)=C(N)Oc2cc(O)ccc21 (configuration not stated)	20.5	–	–
CCOC(=O)CSc1ccc(S(=O)(=O)N(C)C2CCCCC2)cc1[N+](=O)[O-]	–	0.82 µM [falling, full curve, poor fit]	–
CC(C)C(=O)Nc1cccnc1	2.89	–	–
Cc1ccc(N2C(=O)C3C4CCC(O4)C3C2=O)c(OC(F)F)c1 (configuration not stated)	18.3	0.731 µM [falling, single point]	–
CCn1nnnc1Oc1ccc(Cl)cc1	-78.4	–	20.6 µM [falling, single point]
O=[N+]([O-])c1cc([N+](=O)[O-])c(Oc2cc(F)cc(F)c2)cc1NN1CCCCC1	-16.5	25.9 µM [falling, partial curve, poor fit]	–
COc1ccc(CCNc2ccc(C(CC(N)=O)NC(=O)Cc3cccc4ccccc34)cc2[N+](=O)[O-])cc1 (configuration not stated)	20.6	8.2 µM [rising, partial curve, poor fit]	–
COc1ccc(OCCCC(=O)Nc2cc([N+](=O)[O-])ccc2C)cc1	–	0.82 µM [falling, single point]	–
COc1cc(/C=N/O)cc(Br)c1OCC(=O)NCc1ccccc1	31.5	29.1 µM [rising, single point]	32.6 µM [rising, single point]
O=C(c1ccc([N+](=O)[O-])cc1)N(C1=NCCCCS1)c1ccccc1	54.6	–	18.4 µM [rising, partial curve]

A draw from above in order of molecular weight, descending.
Compound	cell number change [%]	AC50 [1]	AC50 [2]
COc1ccc(OC)c(C(=O)CSc2nnc(Cc3cccs3)n2CCc2ccccc2)c1	-35	–	9.2 µM [falling, single point]
CCOC(=O)CSc1ccc(S(=O)(=O)N(C)C2CCCCC2)cc1[N+](=O)[O-]	–	0.82 µM [falling, full curve, poor fit]	–
Cc1cc2c3c(c1)C1(C(=O)N3C(C)(C)CC2C)C(C#N)=C(N)Oc2cc(O)ccc21 (configuration not stated)	20.5	–	–
